According to the supplement of paper PMC7666118:
The list shows a part of the results.

Protein sequences, listed by entry. Tags and fused reporters are not part of them. Lines headed by an entry give the natural chain unless they say otherwise; changes in a name come on top.
UniProt O94817, whole entry: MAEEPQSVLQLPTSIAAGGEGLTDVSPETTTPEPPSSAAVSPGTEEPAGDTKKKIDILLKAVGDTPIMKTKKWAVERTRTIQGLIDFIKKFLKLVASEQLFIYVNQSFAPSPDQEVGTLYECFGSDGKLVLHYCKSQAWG
UniProt P04114: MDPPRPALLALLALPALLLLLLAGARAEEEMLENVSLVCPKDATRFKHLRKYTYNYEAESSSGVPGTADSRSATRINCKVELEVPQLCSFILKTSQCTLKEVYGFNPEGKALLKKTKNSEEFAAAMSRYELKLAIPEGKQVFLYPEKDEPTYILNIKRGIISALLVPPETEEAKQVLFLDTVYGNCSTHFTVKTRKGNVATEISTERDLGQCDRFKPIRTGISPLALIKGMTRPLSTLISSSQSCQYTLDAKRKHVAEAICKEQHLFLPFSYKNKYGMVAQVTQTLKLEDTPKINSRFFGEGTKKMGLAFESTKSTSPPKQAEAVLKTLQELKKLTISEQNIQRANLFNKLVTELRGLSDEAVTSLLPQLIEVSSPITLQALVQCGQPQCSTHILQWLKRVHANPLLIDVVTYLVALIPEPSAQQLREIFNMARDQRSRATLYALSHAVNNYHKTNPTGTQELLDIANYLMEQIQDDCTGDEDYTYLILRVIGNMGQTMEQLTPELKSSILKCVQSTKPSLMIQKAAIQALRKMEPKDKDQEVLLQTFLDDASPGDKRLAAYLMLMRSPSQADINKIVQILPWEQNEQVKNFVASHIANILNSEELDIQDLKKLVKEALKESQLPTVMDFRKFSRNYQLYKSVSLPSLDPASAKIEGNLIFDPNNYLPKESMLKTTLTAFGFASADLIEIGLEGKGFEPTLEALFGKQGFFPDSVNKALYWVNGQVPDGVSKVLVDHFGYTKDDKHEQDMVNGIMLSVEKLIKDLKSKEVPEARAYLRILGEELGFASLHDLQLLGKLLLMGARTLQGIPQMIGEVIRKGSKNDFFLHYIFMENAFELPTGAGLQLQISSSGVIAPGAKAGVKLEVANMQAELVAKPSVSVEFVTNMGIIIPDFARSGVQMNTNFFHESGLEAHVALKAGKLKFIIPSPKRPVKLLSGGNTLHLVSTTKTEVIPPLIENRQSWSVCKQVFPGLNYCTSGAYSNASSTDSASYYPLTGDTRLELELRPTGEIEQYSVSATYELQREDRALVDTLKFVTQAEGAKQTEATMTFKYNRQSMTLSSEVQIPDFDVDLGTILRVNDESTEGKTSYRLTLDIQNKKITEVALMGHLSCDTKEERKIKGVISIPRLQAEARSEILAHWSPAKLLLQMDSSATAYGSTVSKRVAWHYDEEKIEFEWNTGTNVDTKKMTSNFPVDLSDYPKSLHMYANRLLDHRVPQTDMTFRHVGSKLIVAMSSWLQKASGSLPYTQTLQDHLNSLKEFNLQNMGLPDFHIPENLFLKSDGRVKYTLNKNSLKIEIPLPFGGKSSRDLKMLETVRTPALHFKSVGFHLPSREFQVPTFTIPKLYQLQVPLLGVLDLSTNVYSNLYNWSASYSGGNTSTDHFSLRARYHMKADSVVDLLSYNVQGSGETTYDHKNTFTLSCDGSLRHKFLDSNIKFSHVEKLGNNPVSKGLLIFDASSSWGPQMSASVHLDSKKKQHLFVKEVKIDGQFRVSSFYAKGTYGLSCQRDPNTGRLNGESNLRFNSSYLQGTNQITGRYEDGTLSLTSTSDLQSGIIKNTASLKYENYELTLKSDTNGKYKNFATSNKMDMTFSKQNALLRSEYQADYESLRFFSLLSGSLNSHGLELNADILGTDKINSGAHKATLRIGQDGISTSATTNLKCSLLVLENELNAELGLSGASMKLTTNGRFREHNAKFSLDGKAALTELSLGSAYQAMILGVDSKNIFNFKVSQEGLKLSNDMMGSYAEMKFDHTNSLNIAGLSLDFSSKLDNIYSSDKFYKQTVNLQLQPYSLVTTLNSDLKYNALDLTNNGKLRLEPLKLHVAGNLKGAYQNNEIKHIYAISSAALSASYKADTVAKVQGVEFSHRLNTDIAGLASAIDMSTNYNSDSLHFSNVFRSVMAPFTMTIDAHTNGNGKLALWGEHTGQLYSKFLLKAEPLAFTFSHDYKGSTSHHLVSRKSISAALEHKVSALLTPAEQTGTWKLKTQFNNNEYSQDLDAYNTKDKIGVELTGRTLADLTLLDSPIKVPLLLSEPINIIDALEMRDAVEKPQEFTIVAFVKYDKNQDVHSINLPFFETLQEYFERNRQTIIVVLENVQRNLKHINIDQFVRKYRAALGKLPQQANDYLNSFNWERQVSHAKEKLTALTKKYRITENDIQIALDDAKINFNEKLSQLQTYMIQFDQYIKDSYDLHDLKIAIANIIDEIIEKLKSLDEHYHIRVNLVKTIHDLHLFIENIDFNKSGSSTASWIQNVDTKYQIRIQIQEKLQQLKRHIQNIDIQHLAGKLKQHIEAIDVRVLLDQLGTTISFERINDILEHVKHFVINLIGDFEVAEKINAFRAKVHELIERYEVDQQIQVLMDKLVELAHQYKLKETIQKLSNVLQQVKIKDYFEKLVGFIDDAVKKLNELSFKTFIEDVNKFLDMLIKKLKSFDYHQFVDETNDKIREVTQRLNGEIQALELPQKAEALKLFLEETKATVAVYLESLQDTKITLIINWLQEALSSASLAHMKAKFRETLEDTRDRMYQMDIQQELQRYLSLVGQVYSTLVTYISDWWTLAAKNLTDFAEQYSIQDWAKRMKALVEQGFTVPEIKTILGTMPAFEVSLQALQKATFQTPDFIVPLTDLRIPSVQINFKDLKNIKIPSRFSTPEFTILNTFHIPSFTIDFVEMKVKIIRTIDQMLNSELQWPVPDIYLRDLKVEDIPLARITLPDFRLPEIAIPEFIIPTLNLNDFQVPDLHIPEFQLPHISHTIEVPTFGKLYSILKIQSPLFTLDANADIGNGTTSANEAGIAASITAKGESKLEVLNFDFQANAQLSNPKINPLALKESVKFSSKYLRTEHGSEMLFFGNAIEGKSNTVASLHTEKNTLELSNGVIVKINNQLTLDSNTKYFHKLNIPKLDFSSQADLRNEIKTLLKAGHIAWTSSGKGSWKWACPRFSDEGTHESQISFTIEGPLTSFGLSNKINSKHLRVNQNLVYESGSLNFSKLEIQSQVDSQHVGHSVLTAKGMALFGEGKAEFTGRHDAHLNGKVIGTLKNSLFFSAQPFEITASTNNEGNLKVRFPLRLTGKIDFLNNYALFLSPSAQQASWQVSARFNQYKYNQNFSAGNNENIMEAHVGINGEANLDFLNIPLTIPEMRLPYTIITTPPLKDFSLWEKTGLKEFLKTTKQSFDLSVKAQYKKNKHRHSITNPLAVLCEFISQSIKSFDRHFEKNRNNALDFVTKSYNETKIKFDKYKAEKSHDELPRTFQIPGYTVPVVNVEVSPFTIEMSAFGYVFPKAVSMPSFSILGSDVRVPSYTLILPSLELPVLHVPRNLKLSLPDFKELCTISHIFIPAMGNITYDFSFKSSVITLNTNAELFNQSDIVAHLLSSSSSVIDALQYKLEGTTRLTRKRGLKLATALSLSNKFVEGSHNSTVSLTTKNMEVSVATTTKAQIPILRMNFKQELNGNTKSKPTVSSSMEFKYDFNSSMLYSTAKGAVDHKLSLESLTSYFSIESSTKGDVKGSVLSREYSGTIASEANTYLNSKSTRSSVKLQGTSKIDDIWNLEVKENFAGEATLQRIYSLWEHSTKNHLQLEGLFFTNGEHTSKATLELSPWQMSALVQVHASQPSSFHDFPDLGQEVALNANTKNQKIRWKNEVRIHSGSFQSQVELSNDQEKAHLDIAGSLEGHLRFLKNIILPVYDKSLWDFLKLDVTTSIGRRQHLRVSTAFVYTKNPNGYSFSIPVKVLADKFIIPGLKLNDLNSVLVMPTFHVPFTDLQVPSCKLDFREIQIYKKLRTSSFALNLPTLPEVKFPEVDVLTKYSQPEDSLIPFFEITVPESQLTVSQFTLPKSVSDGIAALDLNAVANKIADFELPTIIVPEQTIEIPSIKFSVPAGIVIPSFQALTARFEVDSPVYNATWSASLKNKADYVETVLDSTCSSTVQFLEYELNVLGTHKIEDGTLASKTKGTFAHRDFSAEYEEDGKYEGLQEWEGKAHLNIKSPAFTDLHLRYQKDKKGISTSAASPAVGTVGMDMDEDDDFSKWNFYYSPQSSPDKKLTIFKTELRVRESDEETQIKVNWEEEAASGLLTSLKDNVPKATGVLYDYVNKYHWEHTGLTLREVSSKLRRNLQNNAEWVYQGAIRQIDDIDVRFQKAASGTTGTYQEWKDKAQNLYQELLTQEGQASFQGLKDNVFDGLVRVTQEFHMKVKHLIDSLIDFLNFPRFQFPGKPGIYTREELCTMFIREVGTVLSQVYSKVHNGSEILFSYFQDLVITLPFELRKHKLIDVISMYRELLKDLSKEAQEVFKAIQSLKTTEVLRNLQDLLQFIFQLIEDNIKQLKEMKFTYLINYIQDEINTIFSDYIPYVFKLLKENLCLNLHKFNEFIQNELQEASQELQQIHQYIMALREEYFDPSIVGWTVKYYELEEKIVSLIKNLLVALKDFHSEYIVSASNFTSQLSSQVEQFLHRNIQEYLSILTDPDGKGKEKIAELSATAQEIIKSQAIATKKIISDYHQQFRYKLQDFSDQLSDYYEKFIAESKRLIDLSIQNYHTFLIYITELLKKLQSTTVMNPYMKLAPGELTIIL
UniProt Q9Y6B7: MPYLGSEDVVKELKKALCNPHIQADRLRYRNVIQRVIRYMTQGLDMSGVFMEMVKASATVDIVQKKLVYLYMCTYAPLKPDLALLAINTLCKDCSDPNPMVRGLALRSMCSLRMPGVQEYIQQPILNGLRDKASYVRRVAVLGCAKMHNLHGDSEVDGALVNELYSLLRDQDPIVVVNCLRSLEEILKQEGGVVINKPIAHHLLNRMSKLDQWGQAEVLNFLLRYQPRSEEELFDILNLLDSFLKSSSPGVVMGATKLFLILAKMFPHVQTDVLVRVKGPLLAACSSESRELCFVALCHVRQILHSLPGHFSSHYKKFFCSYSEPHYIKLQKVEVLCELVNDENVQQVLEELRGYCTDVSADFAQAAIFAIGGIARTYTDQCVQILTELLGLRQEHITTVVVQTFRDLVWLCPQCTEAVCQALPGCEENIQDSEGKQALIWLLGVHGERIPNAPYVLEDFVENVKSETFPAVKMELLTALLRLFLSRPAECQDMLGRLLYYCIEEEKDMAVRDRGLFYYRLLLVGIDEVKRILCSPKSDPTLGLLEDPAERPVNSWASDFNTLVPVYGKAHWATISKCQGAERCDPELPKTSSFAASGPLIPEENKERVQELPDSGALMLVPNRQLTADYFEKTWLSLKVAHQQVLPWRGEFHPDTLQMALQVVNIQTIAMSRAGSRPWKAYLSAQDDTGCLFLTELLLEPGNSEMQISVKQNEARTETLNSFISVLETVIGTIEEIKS
UniProt P61204: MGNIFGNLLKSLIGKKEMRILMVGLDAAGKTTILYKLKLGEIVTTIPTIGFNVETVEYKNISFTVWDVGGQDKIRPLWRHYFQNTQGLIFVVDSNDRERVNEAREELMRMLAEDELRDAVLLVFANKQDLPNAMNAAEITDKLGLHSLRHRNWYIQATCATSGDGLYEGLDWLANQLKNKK
UniProt O75891: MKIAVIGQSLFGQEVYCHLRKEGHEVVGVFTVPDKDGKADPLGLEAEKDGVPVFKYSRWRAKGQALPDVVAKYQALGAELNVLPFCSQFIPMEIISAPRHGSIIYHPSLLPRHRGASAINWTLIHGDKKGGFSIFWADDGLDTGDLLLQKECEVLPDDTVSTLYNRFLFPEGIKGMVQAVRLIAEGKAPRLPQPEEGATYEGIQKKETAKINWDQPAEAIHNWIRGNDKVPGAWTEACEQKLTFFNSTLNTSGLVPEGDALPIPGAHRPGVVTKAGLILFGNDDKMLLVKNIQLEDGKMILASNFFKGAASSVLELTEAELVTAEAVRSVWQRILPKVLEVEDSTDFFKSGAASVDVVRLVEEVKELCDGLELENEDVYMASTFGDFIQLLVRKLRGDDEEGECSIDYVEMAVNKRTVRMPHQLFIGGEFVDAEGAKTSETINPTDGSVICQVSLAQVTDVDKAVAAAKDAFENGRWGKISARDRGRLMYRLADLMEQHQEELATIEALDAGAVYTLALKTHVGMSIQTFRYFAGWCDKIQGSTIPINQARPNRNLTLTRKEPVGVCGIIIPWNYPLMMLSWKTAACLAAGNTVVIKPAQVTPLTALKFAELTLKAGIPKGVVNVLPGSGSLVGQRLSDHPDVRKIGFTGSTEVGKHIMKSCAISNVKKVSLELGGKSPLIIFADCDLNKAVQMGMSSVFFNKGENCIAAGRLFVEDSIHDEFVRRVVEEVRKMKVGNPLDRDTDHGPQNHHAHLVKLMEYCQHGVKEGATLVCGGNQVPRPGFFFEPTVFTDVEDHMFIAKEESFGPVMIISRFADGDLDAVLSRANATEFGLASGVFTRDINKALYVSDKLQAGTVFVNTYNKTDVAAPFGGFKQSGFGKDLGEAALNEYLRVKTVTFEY

What follows are targets tested with COc1ccc(Cn2ccc3cc(C)c(C(=O)NO)cc32)cc1 (assay: dose-dependent thermal stabilisation call (2D-TPP, DLPTP, 10% FDR) (binary (1 = stabilised)); higher = stabilised by the compound). Details: system: HL-60 intact cells; concentration range 0.04-10 µM.
Method: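 2D thermal proteome profiling in intact HL-60 cells treated with BRD-3811 (0, 0.04, 0.29, 2, 10 uM) for 90 min at 37 C, then heated 3 min at one of 12 temperatures (42-63.9 C). Soluble protein was quantified by TMT10 MS. The value is the DLPTP call of the paper: dose-dependent thermal stabilisation over all temperatures at 10% FDR (F-test of a dose-response against a flat model); one experiment, one call per tested protein.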

Row | Target | dose-dependent thermal stabilisation call
1 | ASS1 (UniProt P00966) | inactive: 0
2 | AMPD2 (UniProt Q01433) | inactive: 0
3 | ASCC2 (UniProt Q9H1I8) | inactive: 0
4 | ATG12 (UniProt O94817) | inactive: 0
5 | ARHGAP10 (UniProt A1A4S6) | inactive: 0
6 | APPL1 (UniProt Q9UKG1) | inactive: 0
7 | ARHGEF11 (UniProt O15085) | inactive: 0
8 | ALDH5A1 (UniProt P51649) | inactive: 0
9 | AGPAT5 (UniProt Q9NUQ2) | inactive: 0
10 | APOB (UniProt P04114) | inactive: 0
11 | AP4B1 (UniProt Q9Y6B7) | inactive: 0
12 | ALDH4A1 (UniProt P30038) | inactive: 0
13 | ARD1A (UniProt P41227) | inactive: 0
14 | ASAH1 (UniProt Q13510) | inactive: 0
15 | APP (UniProt P05067) | inactive: 0
16 | ANKH (UniProt Q9HCJ1) | inactive: 0
17 | ARPC4 (UniProt P59998) | inactive: 0
18 | ALCAM (UniProt Q13740) | inactive: 0

Pulled one by one from the list above (2):
Row | Target | dose-dependent thermal stabilisation call
10 | APOB (UniProt P04114) | inactive: 0
7 | ARHGEF11 (UniProt O15085) | inactive: 0

The list goes on.

Row | Target | dose-dependent thermal stabilisation call
19 | AIM1 | inactive: 0
20 | AP1S2 (UniProt P56377) | inactive: 0
21 | AMOTL1 (UniProt Q8IY63) | inactive: 0
22 | ANXA4 (UniProt P09525) | inactive: 0
23 | ARF3 (UniProt P61204) | inactive: 0
24 | ANAPC1 (UniProt Q9H1A4) | inactive: 0
25 | AKAP11 (UniProt Q9UKA4) | inactive: 0
26 | ARL1 (UniProt P40616) | inactive: 0
27 | ALDH1L2 (UniProt Q3SY69) | inactive: 0
28 | AGAP2 (UniProt Q99490) | inactive: 0
29 | ANPEP (UniProt P15144) | inactive: 0
30 | ALAD (UniProt P13716) | inactive: 0
31 | ANKHD1-EIF4EBP3 | inactive: 0
32 | ATG2A (UniProt Q2TAZ0) | inactive: 0
33 | ANXA11 (UniProt P50995) | inactive: 0
34 | ALG6 (UniProt Q9Y672) | inactive: 0
35 | AHCY (UniProt P23526) | inactive: 0
36 | ALDH1L1 (UniProt O75891) | inactive: 0
